This is an account of results in patent US5021408A, “Hydrocortisone-17-oxo-21-thioesters, their preparation and their uses as medicaments” (Jouveinal S.A., priority 1983, dated 1991).

The nature of one data set: Dissociation ratio R local anti-inflammatory activity / systemic activity. In kind it is in vivo, mouse (ear inflammation) and rat (thymus). The settings on record: comparison with hydrocortisone-21-acetate = 1. The method, then:
The results obtained by this study make it possible to calculate the activity ratio:
local anti-inflammatory activity
The value of this ratio indicates the dissociation of the activities and is inversely proportional to the size of the dissociation, i.e. the lower this value, the greater the dissociation.
This value was calculated on the basis of the expression: [formula]
For `CCCC(=O)O[C@]1(C(=O)CSC(C)=O)CC[C@H]2[C@@H]3CCC4=CC(=O)CC[C@]4(C)[C@H]3[C@@H](O)C[C@@]21C` [Example 1, 3,20-dione-11β-hydroxypregn-4-ene-21-thioacetate-17-butyrate], the “R hydrocortisone-21-acetate / R studied product” value worked out at 930. Consider `CCCC(=O)O[C@]1(C(=O)COC(=O)CC)CC[C@H]2[C@@H]3CCC4=CC(=O)CC[C@]4(C)[C@H]3[C@@H](O)C[C@@]21C` [Hydrocortisone-21-propionate-17-butyrate, hydrocortisone-21-propionate-17-butyrate], for which the “R hydrocortisone-21-acetate / R studied product” value is 32.8. With `CC(C)(C)C(=O)SCC(=O)[C@@]1(O)CC[C@H]2[C@@H]3CCC4=CC(=O)CC[C@]4(C)[C@H]3[C@@H](O)C[C@@]21C` [Hydrocortisone-21-thiopivalate, hydrocortisone-21-thiopivalate], the “R hydrocortisone-21-acetate / R studied product” value amounted to 31.0. On the same count and under the same terms, the value for `CCC(=O)O[C@]1(C(=O)CSC(=O)CC)[C@@H](C)C[C@H]2[C@@H]3CCC4=CC(=O)C=C[C@]4(C)[C@@]3(Cl)[C@@H](O)C[C@@]21C` [beclomethasone-21-thiopropionate-17-propionate] was 23.20; that for `CCC(=O)O[C@]1(C(=O)CSC(C)=O)[C@@H](C)C[C@H]2[C@@H]3CCC4=CC(=O)C=C[C@]4(C)[C@@]3(F)[C@@H](O)C[C@@]21C` [betamethasone-21-thioacetate-17-propionate] was 5.35; that for `CCC(=O)O[C@]1(C(=O)CSC(=O)CC)[C@@H](C)C[C@H]2[C@@H]3CCC4=CC(=O)C=C[C@]4(C)[C@@]3(F)[C@@H](O)C[C@@]21C` [betamethasone-21-thiopropionate-17-propionate] was 49.40.

For the compound `CC(=O)O[C@]1(C(=O)CSC(=O)CC(C)(C)C)[C@H](C)C[C@H]2[C@@H]3CCC4=CC(=O)C=C[C@]4(C)[C@@]3(F)[C@@H](O)C[C@@]21C` [dexamethasone-21-thiotertiobutylacetate-17-acetate], the “R hydrocortisone-21-acetate / R studied product” value is listed as 7.0. On the same count and under the same terms, then `CCCCC(=O)O[C@]1(C(=O)COC(C)=O)CC[C@H]2[C@@H]3CCC4=CC(=O)C=C[C@]4(C)[C@H]3[C@@H](O)C[C@@]21C` [Prednisolone-21-acetate-17-valerate, prednisolone-21-acetate-17-valerate], with 107.0. On the same count and under the same terms, then `CC(=O)OCC(=O)[C@@]1(O)CC[C@H]2[C@@H]3CCC4=CC(=O)CC[C@]4(C)[C@H]3[C@@H](O)C[C@@]21C` [hydrocortisone-21-acetate], with 1; and `CCCCC(=O)O[C@]1(C(=O)CSC(C)=O)CC[C@H]2[C@@H]3CCC4=CC(=O)C=C[C@]4(C)[C@H]3[C@@H](O)C[C@@]21C` [Prednisolone-21-thioacetate-17-valerate], with 155. In the case of `CCCC(=O)O[C@]1(C(=O)CSC(=O)CC)CC[C@H]2[C@@H]3CCC4=CC(=O)CC[C@]4(C)[C@H]3[C@@H](O)C[C@@]21C` [Example 2, 3,20-dione-11β-hydroxypregn-4-ene-21-thiopropionate-17-butyrate], the “R hydrocortisone-21-acetate / R studied product” value is 1528. On the same count and under the same terms, the value for `CCC(=O)SCC(=O)[C@@]1(OC(C)=O)[C@@H](C)C[C@H]2[C@@H]3CCC4=CC(=O)C=C[C@]4(C)[C@@]3(F)[C@@H](O)C[C@@]21C` [betamethasone-21-thiopropionate-17-acetate] was 4.30. On the same count and under the same terms, then `CCCCC(=O)O[C@]1(C(=O)CSC(C)=O)CC[C@H]2[C@@H]3C[C@H](C)C4=CC(=O)C=C[C@]4(C)[C@H]3[C@@H](O)C[C@@]21C` [6-α-methylprednisolone-21-thioacetate-17-valerate], with 1.85.

Still in this data set, the particulars now being: prednisolone series, versus prednisolone-21-acetate-17-valerate.
As to `CCCCC(=O)O[C@]1(C(=O)CSC(C)=O)CC[C@H]2[C@@H]3CCC4=CC(=O)C=C[C@]4(C)[C@H]3[C@@H](O)C[C@@]21C` [Prednisolone-21-thioacetate-17-valerate], the “dissociation, times better than its oxygenated homologue” value is “approximately 1,5 times”.

The same data set, now with this note: versus its homologue hydrocortisone-21-propionate-17-butyrate.
Regarding `CCCC(=O)O[C@]1(C(=O)CSC(=O)CC)CC[C@H]2[C@@H]3CCC4=CC(=O)CC[C@]4(C)[C@H]3[C@@H](O)C[C@@]21C` [Example 2, 3,20-dione-11β-hydroxypregn-4-ene-21-thiopropionate-17-butyrate], the “dissociation of the activities, times better than hydrocortisone-21-propionate-17-butyrate” value was “more than 45 times”.
